Results are given in words; binding and its absence hold for the method and conditions named. Binding seen in cells or lysates may run through a third protein. Here binding means that the protein was enriched with, or labelled near, the bait; the list need not be complete. Tags and fused reporters may be left off the sequences shown.

Sequences of proteins named here, by UniProt entry; tags and fusion partners are left off.
UniProt P69897: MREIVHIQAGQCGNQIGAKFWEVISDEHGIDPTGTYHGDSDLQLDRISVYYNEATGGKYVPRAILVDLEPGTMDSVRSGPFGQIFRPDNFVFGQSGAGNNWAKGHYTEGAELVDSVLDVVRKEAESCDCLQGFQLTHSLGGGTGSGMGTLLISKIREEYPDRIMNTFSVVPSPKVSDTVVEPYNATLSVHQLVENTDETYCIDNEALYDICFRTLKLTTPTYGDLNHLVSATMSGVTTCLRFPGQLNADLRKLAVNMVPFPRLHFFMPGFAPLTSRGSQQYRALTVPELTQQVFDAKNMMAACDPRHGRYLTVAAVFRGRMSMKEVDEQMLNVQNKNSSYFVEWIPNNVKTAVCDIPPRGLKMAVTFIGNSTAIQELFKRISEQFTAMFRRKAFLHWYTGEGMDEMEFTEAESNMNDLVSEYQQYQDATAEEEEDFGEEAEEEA

For the experiment, the target named is T1, His-Rasd1 (mouse) (UniProt O35626).
T1 sequence: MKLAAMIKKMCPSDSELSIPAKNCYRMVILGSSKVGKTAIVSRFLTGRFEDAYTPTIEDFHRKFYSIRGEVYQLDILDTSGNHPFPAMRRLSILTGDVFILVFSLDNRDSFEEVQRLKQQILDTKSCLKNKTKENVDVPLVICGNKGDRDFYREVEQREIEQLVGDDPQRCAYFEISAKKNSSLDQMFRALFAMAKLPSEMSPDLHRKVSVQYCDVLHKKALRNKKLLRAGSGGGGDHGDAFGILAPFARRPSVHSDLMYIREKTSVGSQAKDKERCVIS
As to the kind of experiment: affinity purification with mass spectrometry; His-Rasd1 from transfected COS-7 cells held on Ni-NTA magnetic agarose beads, washed, incubated with PC-12 lysate overnight at 4°C; bound proteins eluted in Laemmli buffer, Coomassie bands cut from 12% SDS-PAGE, MALDI-TOF/MS; only the target purified.

As to “Tubulin beta 5 (endogenous, PC-12 lysate) (from UniProt P69897 1-444)”, the binding result is reported as “binds”.

B1: NonO (endogenous, PC-12 lysate) (protein, UniProt Q5FVM4 1-476)
chain: MQSNKTFNLEKQNHTPRKHHQHHHQQHHQQQQQQQQQQQQQPPPPIPANGQQASSQNEGLTIDLKNFRKPGEKTFTQRSRLFVGNLPPDITEEEMRKLFEKYGKAGEVFIHKDKGFGFIRLETRTLAEIAKVELDNMPLRGKQLRVRFACHSASLTVRNLPQYVSNELLEEAFSVFGQVERAVVIVDDRGRPSGKGIVEFSGKPAARKALDRCSEGSFLLTTFPRPVTVEPMDQLDDEEGLPEKLVIKNQQFHKEREQPPRFAQPGSFEYEYAMRWKALIEMEKQQQDQVDRNIKEAREKLEMEMEAARHEHQVMLMRQDLMRRQEELRRMEELHNQEVQKRKQLELRQEEERRRREEEMRRQQEEMMRRQQEGFKGTFPDAREQEIRMGQMAMGGAMGINNRGAMPPAPVPPGTPAPPGPAAMMPDGTLGLTPPTTERFGQAATMEGIGAIGGTPPAFNRPAPGAEFAPNKRRRY
Regarding B1, the binding entry is “binds”.
